Paper PMC5403948, “Eutirucallin: A Lectin with Antitumor and Antimicrobial Properties” (Frontiers in Cellular and Infection Microbiology, 2017)
Converted amounts (≈) assume the structure as drawn. Like-named read-outs stand apart in the source and are kept apart here.

Test system: T1, Eutirucallin
T1 construct: gene galactose-binding lectin
Settings: minimum inhibitory concentration, 2% Balb/c mouse erythrocytes, room temperature

Row | Structure (SMILES) | MIC (also eluted from D-galactose-agarose) | MIC
1 | OC[C@H]1OC(O)[C@H](O)[C@@H](O)[C@H]1O (stereo partly drawn) [d(+)-galactose] | 1.56 mM (≈ 281 µg/mL) | 
2 | OC[C@H]1O[C@@H](O[C@H]2[C@H](O)[C@@H](O)[C@@H](O)O[C@@H]2CO)[C@H](O)[C@@H](O)[C@H]1O [α-lactose] |  | 25 mM (≈ 8560 µg/mL)
